These are yes or no findings as the source states them, for the method shown. Some entries that bind do so weakly or less than the wild type.
B1: VHH5-Tandem-GS3-hIDS (protein)
chain: QVQLVESGGGLVQPGGSLRLSCAASGSIFDIYVMRWYRQAPGKGLEWVASIYDGGRNDYDNVVKGRFTISRDNSKNTLYLQMNSLRAEDTAVYFCNVLTYAGRPYWGQGTQVTVSSGSQVQLVESGGGLVQPGGSLRLSCAASGSIFDIYVMRWYRQAPGKGLEWVASIYDGGRNDYDNVVKGRFTISRDNSKNTLYLQMNSLRAEDTAVYFCNVLTYAGRPYWGQGTQVTVSSGGGGSGGGGSGGGGSSETQANSTTDALNVLLIIVDDLRPSLGCYGDKLVRSPNIDQLASHSLLFQNAFAQQAVCAPSRVSFLTGRRPDTTRLYDFNSYWRVHAGNFSTIPQYFKENGYVTMSVGKVFHPGISSNHTDDSPYSWSFPPYHPSSEKYENTKTCRGPDGELHANLLCPVDVLDVPEGTLPDKQSTEQAIQLLEKMKTSASPFFLAVGYHKPHIPFRYPKEFQKLYPLENITLAPDPEVPDGLPPVAYNPWMDIRQREDVQALNISVPYGPIPVDFQRKIRQSYFASVSYLDTQVGRLLSALDDLQLANSTIIAFTSDHGWALGEHGEWAKYSNFDVATHVPLIFYVPGRTASLPEAGEKLFPYLDPFDSASQLMEPGRQSMDLVELVSLFPTLAGLAGLQVPPRCPVPSFHVELCREGKNLLKHFRFRDLEEDPYLPGNPRELIAYSQYPRPSDIPQWNSDKPSLKDIKIMGYSIRTIDYRYTVWVGFNPDEFLANFSDIHAGELYFVDSDPLQDHNMYNDSQGGDLFQLLMP
B2: VHH5-GS3-hIDS (protein)
chain: QVQLVESGGGLVQPGGSLRLSCAASGSIFDIYVMRWYRQAPGKGLEWVASIYDGGRNDYDNVVKGRFTISRDNSKNTLYLQMNSLRAEDTAVYFCNVLTYAGRPYWGQGTQVTVSSGGGGSGGGGSGGGGSSETQANSTTDALNVLLIIVDDLRPSLGCYGDKLVRSPNIDQLASHSLLFQNAFAQQAVCAPSRVSFLTGRRPDTTRLYDFNSYWRVHAGNFSTIPQYFKENGYVTMSVGKVFHPGISSNHTDDSPYSWSFPPYHPSSEKYENTKTCRGPDGELHANLLCPVDVLDVPEGTLPDKQSTEQAIQLLEKMKTSASPFFLAVGYHKPHIPFRYPKEFQKLYPLENITLAPDPEVPDGLPPVAYNPWMDIRQREDVQALNISVPYGPIPVDFQRKIRQSYFASVSYLDTQVGRLLSALDDLQLANSTIIAFTSDHGWALGEHGEWAKYSNFDVATHVPLIFYVPGRTASLPEAGEKLFPYLDPFDSASQLMEPGRQSMDLVELVSLFPTLAGLAGLQVPPRCPVPSFHVELCREGKNLLKHFRFRDLEEDPYLPGNPRELIAYSQYPRPSDIPQWNSDKPSLKDIKIMGYSIRTIDYRYTVWVGFNPDEFLANFSDIHAGELYFVDSDPLQDHNMYNDSQGGDLFQLLMP
B3: VHH6-GS3-hIDS (protein)
chain: QVQLVESGGGLVQPGGSLRLSCAASGSIFDIYVMRWYRQAPGKGLEWVASIYAGGRNDYDNVVKGRFTISRDNSKNTLYLQMNSLRAEDTAVYFCNVLTYAGRPYWGQGTQVTVSSGGGGSGGGGSGGGGSSETQANSTTDALNVLLIIVDDLRPSLGCYGDKLVRSPNIDQLASHSLLFQNAFAQQAVCAPSRVSFLTGRRPDTTRLYDFNSYWRVHAGNFSTIPQYFKENGYVTMSVGKVFHPGISSNHTDDSPYSWSFPPYHPSSEKYENTKTCRGPDGELHANLLCPVDVLDVPEGTLPDKQSTEQAIQLLEKMKTSASPFFLAVGYHKPHIPFRYPKEFQKLYPLENITLAPDPEVPDGLPPVAYNPWMDIRQREDVQALNISVPYGPIPVDFQRKIRQSYFASVSYLDTQVGRLLSALDDLQLANSTIIAFTSDHGWALGEHGEWAKYSNFDVATHVPLIFYVPGRTASLPEAGEKLFPYLDPFDSASQLMEPGRQSMDLVELVSLFPTLAGLAGLQVPPRCPVPSFHVELCREGKNLLKHFRFRDLEEDPYLPGNPRELIAYSQYPRPSDIPQWNSDKPSLKDIKIMGYSIRTIDYRYTVWVGFNPDEFLANFSDIHAGELYFVDSDPLQDHNMYNDSQGGDLFQLLMP

biological target: recombinant hTfR containing the extracellular region of hTfR (coated on the ELISA plate in Example 16) (human) (UniProt P02786); assay: ELISA, recombinant hTfR coated on plate

binding, binds:
B1
B2
B3

Reference: patent EP4424325A1
